Test results from publication PMC6899518.
Numbering of substitutions follows the chain as printed. Numbers in names are those of the source. Results are given in words; binding and its absence hold for the method and conditions named. In cells and extracts the contact can be indirect. Some binding calls cover weakened binding; strength is not graded here. Sequences can lack the tags named with a protein.

Chains of the proteins cited; added tags and fusions are not shown. Lines headed by an entry give the natural chain unless they say otherwise; changes in a name come on top.
UniProt P24279: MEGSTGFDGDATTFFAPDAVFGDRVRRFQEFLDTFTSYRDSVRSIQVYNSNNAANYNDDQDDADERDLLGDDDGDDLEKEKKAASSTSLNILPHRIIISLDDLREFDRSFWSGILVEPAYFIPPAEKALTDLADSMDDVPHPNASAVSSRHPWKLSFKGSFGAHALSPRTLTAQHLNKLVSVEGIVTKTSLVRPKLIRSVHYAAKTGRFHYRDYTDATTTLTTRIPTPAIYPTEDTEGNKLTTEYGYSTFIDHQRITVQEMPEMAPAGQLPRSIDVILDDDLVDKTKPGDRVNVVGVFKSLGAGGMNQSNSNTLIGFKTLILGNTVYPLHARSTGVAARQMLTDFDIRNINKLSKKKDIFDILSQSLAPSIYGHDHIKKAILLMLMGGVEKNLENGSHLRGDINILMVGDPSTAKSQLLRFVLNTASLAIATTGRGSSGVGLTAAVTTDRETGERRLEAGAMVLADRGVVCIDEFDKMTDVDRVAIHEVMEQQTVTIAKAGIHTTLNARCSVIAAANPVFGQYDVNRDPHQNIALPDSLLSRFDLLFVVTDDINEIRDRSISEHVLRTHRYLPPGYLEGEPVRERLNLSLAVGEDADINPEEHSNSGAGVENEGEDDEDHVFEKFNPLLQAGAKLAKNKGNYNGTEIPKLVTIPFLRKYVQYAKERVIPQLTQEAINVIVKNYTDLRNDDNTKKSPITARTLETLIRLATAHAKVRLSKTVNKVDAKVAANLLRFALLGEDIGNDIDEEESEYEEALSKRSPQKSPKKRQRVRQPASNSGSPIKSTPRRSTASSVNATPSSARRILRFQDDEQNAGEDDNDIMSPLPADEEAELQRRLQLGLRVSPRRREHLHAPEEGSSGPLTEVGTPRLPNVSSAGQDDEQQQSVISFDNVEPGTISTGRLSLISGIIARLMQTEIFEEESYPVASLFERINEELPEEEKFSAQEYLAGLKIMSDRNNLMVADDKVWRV
UniProt P29469: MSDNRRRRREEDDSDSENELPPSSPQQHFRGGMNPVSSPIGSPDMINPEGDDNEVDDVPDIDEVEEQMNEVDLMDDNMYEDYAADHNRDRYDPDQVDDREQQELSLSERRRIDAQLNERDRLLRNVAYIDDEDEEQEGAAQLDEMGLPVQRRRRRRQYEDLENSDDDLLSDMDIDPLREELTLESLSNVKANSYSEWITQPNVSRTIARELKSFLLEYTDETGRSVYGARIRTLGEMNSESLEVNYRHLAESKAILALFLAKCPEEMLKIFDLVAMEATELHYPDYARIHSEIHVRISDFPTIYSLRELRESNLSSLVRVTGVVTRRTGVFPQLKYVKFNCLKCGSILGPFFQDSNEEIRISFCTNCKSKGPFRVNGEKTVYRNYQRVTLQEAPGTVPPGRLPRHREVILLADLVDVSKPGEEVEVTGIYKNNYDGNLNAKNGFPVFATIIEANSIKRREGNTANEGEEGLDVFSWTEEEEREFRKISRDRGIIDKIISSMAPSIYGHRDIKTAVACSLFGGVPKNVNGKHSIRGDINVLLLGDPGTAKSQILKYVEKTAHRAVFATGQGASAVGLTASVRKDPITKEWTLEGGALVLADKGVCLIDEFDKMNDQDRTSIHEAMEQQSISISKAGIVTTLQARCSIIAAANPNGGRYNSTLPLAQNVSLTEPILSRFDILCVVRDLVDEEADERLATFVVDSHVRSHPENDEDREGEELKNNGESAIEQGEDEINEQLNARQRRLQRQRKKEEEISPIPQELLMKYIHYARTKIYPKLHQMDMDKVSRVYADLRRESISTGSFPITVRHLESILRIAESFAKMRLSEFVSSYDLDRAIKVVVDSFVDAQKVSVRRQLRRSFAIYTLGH

T1: ProteinA-tagged Dia2 1–732 (full-length Dia2) (S. cerevisiae) (UniProt Q08496)
T1 sequence: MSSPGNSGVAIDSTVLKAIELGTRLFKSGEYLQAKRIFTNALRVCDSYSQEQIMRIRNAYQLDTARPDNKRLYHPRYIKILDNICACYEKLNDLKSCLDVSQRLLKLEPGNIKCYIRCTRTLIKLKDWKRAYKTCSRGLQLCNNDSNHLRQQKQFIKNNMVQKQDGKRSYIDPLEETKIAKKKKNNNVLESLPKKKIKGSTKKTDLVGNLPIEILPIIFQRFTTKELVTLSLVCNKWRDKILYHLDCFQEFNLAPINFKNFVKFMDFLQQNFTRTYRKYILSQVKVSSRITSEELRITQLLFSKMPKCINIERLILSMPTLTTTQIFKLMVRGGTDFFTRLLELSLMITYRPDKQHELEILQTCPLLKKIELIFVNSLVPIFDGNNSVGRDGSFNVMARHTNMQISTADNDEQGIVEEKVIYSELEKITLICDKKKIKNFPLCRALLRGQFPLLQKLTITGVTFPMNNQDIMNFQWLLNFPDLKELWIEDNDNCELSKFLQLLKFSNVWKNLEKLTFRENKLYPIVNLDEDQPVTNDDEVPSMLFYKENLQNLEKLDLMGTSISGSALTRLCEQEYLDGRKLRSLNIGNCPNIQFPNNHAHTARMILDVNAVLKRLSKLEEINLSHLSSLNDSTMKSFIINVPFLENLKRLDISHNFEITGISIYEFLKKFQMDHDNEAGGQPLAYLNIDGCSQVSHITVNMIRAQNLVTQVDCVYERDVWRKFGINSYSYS

T2: TAP-tagged Sld5 subunit of GINS (S. cerevisiae) (UniProt Q03406)
T2 sequence: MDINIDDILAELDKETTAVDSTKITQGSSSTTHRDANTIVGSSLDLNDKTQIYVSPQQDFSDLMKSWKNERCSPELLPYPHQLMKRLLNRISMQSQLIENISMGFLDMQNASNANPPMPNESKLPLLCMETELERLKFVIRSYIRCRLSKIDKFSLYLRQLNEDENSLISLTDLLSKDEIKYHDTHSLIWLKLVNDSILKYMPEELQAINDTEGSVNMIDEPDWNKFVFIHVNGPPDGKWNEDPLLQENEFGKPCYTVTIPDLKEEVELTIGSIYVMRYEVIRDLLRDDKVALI

B1: Mcm7 subunit of CMG (protein, UniProt P38132 1-845)
chain: MSAALPSIQLPVDYNNLFNEITDFLVTFKQDTLSSDATRNENEDENLDAENIEQHLLEKGPKYMAMLQKVANRELNSVIIDLDDILQYQNEKFLQGTQADDLVSAIQQNANHFTELFCRAIDNNMPLPTKEIDYKDDVLDVILNQRRLRNERMLSDRTNEIRSENLMDTTMDPPSSMNDALREVVEDETELFPPNLTRRYFLYFKPLSQNCARRYRKKAISSKPLSVRQIKGDFLGQLITVRGIITRVSDVKPAVEVIAYTCDQCGYEVFQEVNSRTFTPLSECTSEECSQNQTKGQLFMSTRASKFSAFQECKIQELSQQVPVGHIPRSLNIHVNGTLVRSLSPGDIVDVTGIFLPAPYTGFKALKAGLLTETYLEAQFVRQHKKKFASFSLTSDVEERVMELITSGDVYNRLAKSIAPEIYGNLDVKKALLLLLVGGVDKRVGDGMKIRGDINVCLMGDPGVAKSQLLKAICKISPRGVYTTGKGSSGVGLTAAVMKDPVTDEMILEGGALVLADNGICCIDEFDKMDESDRTAIHEVMEQQTISISKAGINTTLNARTSILAAANPLYGRYNPRLSPLDNINLPAALLSRFDILFLMLDIPSRDDDEKLAEHVTYVHMHNKQPDLDFTPVEPSKMREYIAYAKTKRPVMSEAVNDYVVQAYIRLRQDSKREMDSKFSFGQATPRTLLGIIRLSQALAKLRLADMVDIDDVEEALRLVRVSKESLYQETNKSKEDESPTTKIFTIIKKMLQETGKNTLSYENIVKTVRLRGFTMLQLSNCIQEYSYLNVWHLINEGNTLKFVDDGTMDTDQEDSLVSTPKLAPQTTASANVSAQDSDIDLQDA
B2: Mcm7-K29A (protein, UniProt P38132 1-845)
chain: B1 chain with K29A
B3: Cdc45 (protein, UniProt Q08032 1-650)
chain: MYYGISQFSEAYNKILRNSSSHSSCQLVIFVSCLNIDALCATKMLSLLFKKQLVQSQIVPIFGYSELRRHYSQLDDNINSLLLVGFGGVIDLEAFLEIDPQEYVIDTDEKSGEQSFRRDIYVLDAHRPWNLDNIFGSQIIQCFDDGTVDDTLGEQKEAYYKLLELDEESGDDELSGDENDNNGGDDEATDADEVTDEDEEDEDETISNKRGNSSIGPNDLSKRKQRKKQIHEYEGVLEEYYSQGTTVVNSISAQIYSLLSAIGETNLSNLWLNILGTTSLDIAYAQVYNRLYPLLQDEVKRLTPSSRNSVKTPDTLTLNIQPDYYLFLLRHSSLYDSFYYSNYVNAKLSLWNENGKKRLHKMFARMGIPLSTAQETWLYMDHSIKRELGIIFDKNLDRYGLQDIIRDGFVRTLGYRGSISASEFVEALTALLEVGNSTDKDSVKINNDNNDDTDGEEEEDNSAQKLTNLRKRWVSNFWLSWDALDDRKVELLNRGIQLAQDLQRAIFNTGVAILEKKLIKHLRIYRLCVLQDGPDLDLYRNPLTLLRLGNWLIECCAESEDKQLLPMVLASIDENTDTYLVAGLTPRYPRGLDTIHTKKPILNNFSMAFQQITAETDAKVRIDNFESSIIEIRREDLSPFLEKLTLSGLL
B4: GINS component of the CMG helicase (from PSF2-5FLAG cells) (complex, UniProt Q03406 1-294; Q12488 1-208; P40359 1-213; Q12146 1-194)
chain 1: T2 sequence
chain 2: MYGDLGNKLVLEAKRTKQLYARSNQDVNLPMYHEDIIRNILKEVSNLRKNTEYLKEQQQLGMLDDKVAKCQYFVTLLCMERNKRCLLAYQRLRTDILDSMAWNNNGLDLMSSITFSQQDTNNLSHQEQEYLKEYCDLITDLKSGDLVDIDLSGSLVPPSDVFIDVRVLKDAGEIQTEYGVFNLIKDSQFFVRQSDVERLIQQGYLQKI
chain 3: MSLPAHLQQTFSPEEIQFIVENEPIKIFPRITTRQKIRGDDRGTGNHTRWQLITTDDKALNNMVAMRSTEVVLWIALLLKQQSKCSIVAPQWLTTKELDRKIQYEKTHPDRFSELPWNWLVLARILFNKAKDDFHDPIHELRGKIQDLREIRQIKVLKGLKYLNESHLQLDNLSLLEINELRPFITEIMDKLREIHTASLTAGTENDEEEFNI
chain 4: MGYYDIDDVLADGTEFPCKFQYDIPGLGYLENNPGRPITKNTKLSLPLWLARILAIVGGDEALVDEEPVPFVELLPPDMFSTKVMNAIKTDPVALDLHSINSHFFSLAIKWIMLFSEKELANVVSELLLQRAQELNHHASSLSIDLNADSTGKNSANTNIATSTFLLKLEEMEKEIYKKSHESYKDTKRWMFKK
B5: Psf1 subunit of GINS (protein, UniProt Q12488 1-208)
chain: B4 chain 2

Key:
[1] = target: T1, ProteinA-tagged Dia2 1–732 (full-length Dia2) (S. cerevisiae); assay: co-IP; ProteinA-tagged Dia2 isolated on IgG-coated magnetic beads from concentrated yeast cell extracts, 2 h; washed in 100 mM Tris-acetate pH 9.0, 100 mM potassium acetate, 10 mM magnesium acetate, 0.1% IGEPAL CA-630; bound proteins boiled off or released with TEV protease; immunoblotting
[2] = target: T2, TAP-tagged Sld5 subunit of GINS (S. cerevisiae); assay: co-IP; TAP-Sld5 isolated on IgG-coupled magnetic beads from 'high-salt' extracts (700 mM potassium acetate) after depletion of Cdc48-aid and release from HU arrest at 37°C; chromosomal DNA digested; immunoblotting; cdc48-aid and cdc48-aid rsp5-1 cells

Row | binding [1] | binding [2] | Molecule
1 | binds | – | Mcm3 (from UniProt P24279 1-971)
2 | binds | – | Mcm2–7 components of CMG (from UniProt P29469 1-868; P24279 1-971; P30665 1-933; P29496 1-775; P53091 1-1017; P38132 1-845) (complex)
3 | binds | – | B1
4 | binds | – | B2
5 | binds | binds | B3
6 | binds | – | B4
7 | – | binds | B5
